# Measured values from the supplement of paper PMC10849652.
# Sequences of proteins named here, by UniProt entry; tags and fusion partners are left off. A change or cut given only in a name is not applied to a line headed by its entry.
# UniProt Q8TCT7: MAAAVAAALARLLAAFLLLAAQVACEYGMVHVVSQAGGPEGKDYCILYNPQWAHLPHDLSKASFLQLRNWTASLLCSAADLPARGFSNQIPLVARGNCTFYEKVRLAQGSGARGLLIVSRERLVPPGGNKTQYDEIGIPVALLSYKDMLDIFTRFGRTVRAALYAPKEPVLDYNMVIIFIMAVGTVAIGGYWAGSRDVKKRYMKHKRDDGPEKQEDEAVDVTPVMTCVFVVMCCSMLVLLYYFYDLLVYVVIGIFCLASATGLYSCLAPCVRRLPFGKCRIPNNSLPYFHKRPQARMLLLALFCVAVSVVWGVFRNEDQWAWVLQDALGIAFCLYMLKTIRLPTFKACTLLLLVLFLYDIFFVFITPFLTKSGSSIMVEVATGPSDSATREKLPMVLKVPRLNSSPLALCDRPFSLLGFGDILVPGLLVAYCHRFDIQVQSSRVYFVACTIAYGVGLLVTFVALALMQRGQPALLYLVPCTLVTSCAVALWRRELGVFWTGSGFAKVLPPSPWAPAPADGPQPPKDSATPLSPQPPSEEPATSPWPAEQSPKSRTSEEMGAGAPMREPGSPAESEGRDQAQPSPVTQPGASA
# UniProt Q01130: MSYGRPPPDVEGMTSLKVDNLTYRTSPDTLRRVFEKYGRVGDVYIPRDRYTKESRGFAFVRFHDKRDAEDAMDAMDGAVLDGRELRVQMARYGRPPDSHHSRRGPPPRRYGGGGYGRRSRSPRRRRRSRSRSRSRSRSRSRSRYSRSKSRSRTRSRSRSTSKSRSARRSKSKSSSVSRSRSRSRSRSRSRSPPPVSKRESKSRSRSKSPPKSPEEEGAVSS
# UniProt Q9NP77: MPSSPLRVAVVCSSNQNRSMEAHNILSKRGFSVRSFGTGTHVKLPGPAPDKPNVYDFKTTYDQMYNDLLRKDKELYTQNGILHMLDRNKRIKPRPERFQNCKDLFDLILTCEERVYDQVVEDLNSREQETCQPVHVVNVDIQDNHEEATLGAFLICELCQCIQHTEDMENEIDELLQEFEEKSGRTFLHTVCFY
# UniProt Q96T58, whole entry, looked up: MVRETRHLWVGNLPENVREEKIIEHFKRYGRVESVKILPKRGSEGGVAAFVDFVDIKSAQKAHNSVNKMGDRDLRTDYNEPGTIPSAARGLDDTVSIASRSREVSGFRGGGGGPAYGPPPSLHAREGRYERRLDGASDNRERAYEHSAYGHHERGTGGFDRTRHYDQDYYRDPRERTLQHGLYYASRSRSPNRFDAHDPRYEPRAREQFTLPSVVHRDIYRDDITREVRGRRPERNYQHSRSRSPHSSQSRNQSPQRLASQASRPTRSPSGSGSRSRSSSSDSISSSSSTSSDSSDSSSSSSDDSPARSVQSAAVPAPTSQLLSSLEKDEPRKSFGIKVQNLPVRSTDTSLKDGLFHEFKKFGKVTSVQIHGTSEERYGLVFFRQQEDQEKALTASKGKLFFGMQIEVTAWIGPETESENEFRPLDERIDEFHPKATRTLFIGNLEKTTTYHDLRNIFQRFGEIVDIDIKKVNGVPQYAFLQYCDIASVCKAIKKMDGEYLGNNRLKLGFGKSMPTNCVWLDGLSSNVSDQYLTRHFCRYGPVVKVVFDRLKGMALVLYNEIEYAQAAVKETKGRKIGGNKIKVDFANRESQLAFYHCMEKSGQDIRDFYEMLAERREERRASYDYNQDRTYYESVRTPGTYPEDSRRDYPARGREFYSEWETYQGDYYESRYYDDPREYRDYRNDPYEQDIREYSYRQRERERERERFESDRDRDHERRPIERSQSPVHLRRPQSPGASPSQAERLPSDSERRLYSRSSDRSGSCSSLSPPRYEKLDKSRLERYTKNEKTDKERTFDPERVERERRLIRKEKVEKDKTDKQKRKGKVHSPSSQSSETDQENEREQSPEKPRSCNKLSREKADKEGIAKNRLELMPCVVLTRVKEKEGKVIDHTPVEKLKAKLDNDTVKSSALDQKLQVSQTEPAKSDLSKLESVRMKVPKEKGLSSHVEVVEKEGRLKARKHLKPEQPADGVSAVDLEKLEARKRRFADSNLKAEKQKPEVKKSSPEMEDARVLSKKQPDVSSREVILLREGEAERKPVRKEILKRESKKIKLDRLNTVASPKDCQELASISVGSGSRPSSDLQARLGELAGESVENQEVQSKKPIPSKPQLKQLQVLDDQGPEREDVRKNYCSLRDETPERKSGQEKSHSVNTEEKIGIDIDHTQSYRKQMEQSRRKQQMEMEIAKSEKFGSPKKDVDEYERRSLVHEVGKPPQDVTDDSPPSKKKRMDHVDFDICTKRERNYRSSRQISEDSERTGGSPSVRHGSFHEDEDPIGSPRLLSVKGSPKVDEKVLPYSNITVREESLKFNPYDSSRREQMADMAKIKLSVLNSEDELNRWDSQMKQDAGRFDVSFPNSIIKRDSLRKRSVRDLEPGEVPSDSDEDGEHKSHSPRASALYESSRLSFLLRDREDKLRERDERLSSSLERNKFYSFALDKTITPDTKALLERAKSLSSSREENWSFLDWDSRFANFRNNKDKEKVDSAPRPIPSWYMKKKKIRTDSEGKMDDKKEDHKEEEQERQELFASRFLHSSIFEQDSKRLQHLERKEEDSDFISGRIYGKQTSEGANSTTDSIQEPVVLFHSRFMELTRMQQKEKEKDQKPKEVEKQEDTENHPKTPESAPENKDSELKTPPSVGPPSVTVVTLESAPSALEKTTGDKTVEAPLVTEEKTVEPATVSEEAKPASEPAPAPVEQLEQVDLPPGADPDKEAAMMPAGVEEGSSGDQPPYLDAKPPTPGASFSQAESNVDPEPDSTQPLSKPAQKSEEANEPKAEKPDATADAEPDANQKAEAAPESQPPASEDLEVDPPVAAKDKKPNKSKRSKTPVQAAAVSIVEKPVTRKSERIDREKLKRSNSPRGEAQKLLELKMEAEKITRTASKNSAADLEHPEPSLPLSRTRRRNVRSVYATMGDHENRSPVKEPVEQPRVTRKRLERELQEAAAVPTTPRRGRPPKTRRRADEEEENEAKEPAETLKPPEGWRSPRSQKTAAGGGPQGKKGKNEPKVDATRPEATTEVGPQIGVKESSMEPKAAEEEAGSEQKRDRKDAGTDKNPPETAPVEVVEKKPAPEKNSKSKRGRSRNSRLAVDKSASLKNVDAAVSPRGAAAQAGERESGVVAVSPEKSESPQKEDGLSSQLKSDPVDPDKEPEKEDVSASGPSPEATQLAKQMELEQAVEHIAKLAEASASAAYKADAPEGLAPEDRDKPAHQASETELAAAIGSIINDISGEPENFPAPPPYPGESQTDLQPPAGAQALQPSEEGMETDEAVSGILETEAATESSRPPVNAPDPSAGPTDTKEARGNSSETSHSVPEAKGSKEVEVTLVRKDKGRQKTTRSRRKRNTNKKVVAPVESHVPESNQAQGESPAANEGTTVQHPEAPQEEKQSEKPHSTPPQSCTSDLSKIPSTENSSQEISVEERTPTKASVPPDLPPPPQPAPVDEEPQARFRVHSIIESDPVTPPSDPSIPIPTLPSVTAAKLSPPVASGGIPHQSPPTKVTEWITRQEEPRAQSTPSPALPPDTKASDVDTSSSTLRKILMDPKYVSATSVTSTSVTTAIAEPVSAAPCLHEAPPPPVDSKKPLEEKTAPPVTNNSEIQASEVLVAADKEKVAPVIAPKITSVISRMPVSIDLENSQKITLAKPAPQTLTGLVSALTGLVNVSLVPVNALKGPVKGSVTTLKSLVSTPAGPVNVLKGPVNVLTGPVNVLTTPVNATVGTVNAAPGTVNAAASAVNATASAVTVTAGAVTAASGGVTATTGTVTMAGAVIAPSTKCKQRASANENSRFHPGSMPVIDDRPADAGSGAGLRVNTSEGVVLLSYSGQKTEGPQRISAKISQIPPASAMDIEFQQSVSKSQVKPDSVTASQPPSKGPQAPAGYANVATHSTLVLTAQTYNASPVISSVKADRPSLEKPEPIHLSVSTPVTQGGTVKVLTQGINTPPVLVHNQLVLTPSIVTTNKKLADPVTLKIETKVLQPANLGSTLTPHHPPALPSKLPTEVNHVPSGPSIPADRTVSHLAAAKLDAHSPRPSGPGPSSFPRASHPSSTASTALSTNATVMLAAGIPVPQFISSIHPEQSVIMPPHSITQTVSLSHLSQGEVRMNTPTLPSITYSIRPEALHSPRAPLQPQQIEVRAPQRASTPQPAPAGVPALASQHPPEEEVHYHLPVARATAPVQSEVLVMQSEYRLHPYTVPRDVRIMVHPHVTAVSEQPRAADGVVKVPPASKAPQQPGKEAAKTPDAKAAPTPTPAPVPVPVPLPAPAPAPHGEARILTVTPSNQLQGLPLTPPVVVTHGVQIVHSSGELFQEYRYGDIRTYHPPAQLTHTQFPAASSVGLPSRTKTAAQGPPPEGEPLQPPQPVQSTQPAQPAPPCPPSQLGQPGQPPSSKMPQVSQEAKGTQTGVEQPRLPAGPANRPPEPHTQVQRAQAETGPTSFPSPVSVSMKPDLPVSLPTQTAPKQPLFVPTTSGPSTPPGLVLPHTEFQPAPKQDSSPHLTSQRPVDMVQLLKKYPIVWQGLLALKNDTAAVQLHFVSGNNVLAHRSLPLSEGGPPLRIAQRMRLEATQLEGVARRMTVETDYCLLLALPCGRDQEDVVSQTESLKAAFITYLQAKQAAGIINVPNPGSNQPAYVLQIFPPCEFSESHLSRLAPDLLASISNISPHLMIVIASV
# UniProt Q16629: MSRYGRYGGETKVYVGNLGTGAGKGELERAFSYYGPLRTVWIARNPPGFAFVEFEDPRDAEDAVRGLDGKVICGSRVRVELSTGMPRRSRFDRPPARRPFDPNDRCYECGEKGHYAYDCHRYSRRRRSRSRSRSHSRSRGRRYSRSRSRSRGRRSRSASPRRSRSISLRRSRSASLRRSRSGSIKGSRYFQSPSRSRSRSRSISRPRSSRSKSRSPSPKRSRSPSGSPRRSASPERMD
# UniProt O95772: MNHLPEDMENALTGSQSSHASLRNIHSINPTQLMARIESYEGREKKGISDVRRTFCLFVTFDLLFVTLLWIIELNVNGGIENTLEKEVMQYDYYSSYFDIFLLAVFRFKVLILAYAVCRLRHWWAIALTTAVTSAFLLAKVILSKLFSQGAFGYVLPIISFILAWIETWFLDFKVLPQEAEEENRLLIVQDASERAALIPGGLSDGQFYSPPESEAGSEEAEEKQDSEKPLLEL
# UniProt P37108: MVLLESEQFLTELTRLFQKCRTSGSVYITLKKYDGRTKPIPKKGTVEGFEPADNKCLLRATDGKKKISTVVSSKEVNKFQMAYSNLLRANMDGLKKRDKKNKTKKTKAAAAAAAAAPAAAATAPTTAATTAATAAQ
# UniProt Q9UHB9: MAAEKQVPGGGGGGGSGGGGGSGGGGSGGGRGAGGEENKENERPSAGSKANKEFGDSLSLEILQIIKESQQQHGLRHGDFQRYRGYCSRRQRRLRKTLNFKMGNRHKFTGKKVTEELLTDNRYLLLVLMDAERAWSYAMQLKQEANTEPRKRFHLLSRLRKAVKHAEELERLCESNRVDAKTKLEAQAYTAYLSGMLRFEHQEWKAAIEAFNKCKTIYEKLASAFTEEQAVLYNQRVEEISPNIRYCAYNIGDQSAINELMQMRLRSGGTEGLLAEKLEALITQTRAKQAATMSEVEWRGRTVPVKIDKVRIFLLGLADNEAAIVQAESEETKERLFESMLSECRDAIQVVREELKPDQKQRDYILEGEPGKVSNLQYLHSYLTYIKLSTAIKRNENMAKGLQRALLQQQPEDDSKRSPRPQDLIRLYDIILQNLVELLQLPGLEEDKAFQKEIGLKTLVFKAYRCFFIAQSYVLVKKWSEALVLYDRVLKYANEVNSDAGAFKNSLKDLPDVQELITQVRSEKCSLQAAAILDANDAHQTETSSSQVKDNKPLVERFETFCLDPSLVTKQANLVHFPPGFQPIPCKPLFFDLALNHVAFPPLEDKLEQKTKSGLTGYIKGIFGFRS
# UniProt Q04837: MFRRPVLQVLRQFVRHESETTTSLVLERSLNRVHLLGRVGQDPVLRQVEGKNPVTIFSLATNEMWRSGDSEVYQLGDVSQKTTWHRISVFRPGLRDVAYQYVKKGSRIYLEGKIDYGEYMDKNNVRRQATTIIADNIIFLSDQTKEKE
# UniProt Q8NBT2: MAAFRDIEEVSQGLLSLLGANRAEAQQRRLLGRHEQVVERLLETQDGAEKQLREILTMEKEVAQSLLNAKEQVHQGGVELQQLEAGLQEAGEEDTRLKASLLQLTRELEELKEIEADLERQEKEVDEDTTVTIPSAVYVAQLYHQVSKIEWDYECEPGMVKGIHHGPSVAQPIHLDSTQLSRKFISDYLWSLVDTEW
# UniProt Q11206: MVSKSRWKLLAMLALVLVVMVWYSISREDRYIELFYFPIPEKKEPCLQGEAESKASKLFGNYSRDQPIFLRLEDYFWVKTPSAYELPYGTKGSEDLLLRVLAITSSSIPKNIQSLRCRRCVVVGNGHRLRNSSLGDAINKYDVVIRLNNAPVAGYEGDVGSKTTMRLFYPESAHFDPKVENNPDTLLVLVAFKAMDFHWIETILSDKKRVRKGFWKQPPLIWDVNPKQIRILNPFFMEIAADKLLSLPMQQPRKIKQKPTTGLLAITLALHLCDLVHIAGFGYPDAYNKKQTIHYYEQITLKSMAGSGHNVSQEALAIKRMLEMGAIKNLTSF
# Some of the results follow.
# How the values were obtained:
# Experiment in all cases: log2 fold change, soluble protein after heating vs DMSO (PISA); higher = thermal stabilisation; K562 lysate, 10 uM; active = over 0.2 and 3.5 SD of the protein, either way, in both replicates (recomputed)
# erlotinib = compound: C#Cc1cccc(Nc2ncnc3cc(OCCOC)c(OCCOC)cc23)c1 [erlotinib]
# How it was run: (§1)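 Values give the log-two fold change in thermal stability against solvent controls, from duplicates. Crude K562 extract at 1 mg/mL protein, made by dounce homogenisation in PBS pH 7.4 with 1 mM MgCl2, was treated with 10 μM compound for 30 min. After 3 min heating across 48°C-58°C, aliquots were pooled, adjusted to 0.5% NP-40 at 4°C and centrifuged at 21,000xg for 90 min. The supernatant was measured by TMTpro 16plex LC-MS/MS with channel sums equalised.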
# [1] = compound: C/C(=N\NC(=O)C1=CC(=CC=C1)S(=O)(=O)N2CCOCC2)/C3=C(C=CC(=C3)Cl)O
# How it was run: as §1
# [2] = compound: C1=CC(=CC=C1C2=NC3=C(N2)C=C(C=C3)C(=O)N)OC4=CC=C(C=C4)Cl
# How it was run: as §1
# [3] = compound: C1=CC2=C(C=CC(=C2)/C=C\3/C(=O)NC(=NCC4=CC=CS4)S3)N=C1
# How it was run: as §1
# [4] = compound: C1=CC2=NC=CN=C2C=C1/C=C/3\C(=O)NC(=O)S3
# How it was run: as §1
# [5] = compound: C1=CC=C(C=C1)C2=NC(=C(N2)C3=CC=NC=C3)C4=CC(=C(C=C4)Cl)O
# How it was run: as §1
# [6] = compound: C1=CC=C2C(=C1)C3=NNC4=CC=CC(=C43)C2=O
# How it was run: as §1
# [7] = compound: C1CCN(C1)C(=O)NC2=CC=CC(=C2)NC3=NC=C(C(=N3)NCCC4=CN=CN4)Br
# How it was run: as §1
# [8] = compound: C1CN(CCC1(CC2=CC=C(C=C2)Cl)N)C3=NC=NC4=C3C=CN4
# How it was run: as §1
# IRAK-1-4 Inhibitor I = compound: C1COCCN1CCN2C3=CC=CC=C3N=C2NC(=O)C4=CC(=CC=C4)[N+](=O)[O-] [IRAK-1-4 Inhibitor I]
# How it was run: as §1
Target,log2 fold change (erlotinib),log2 fold change [1],log2 fold change [2],log2 fold change [3],log2 fold change [4],log2 fold change [5],log2 fold change [6],log2 fold change [7],log2 fold change [8],log2 fold change (IRAK-1-4 Inhibitor I)
SRRT (UniProt Q9BXP5),inactive: 0.039,inactive: 0.023,inactive: -0.005,inactive: 0.041,inactive: 0.004,inactive: 0.022,inactive: -0.03,inactive: -0.005,inactive: -0.011,inactive: 0.004
SPPL2B (UniProt Q8TCT7),inactive: -0.018,inactive: 0.035,inactive: 0,inactive: 0.024,inactive: 0.038,inactive: 0.038,inactive: -0.078,inactive: 0.025,inactive: 0.045,inactive: 0.067
SPIRE1 (UniProt Q08AE8),inactive: -0.062,inactive: 0.054,inactive: -0.032,inactive: 0.068,inactive: -0.067,inactive: 0.027,inactive: 0.022,inactive: 0.013,inactive: -0.024,inactive: -0.032
SRSF2 (UniProt Q01130),inactive: 0.005,inactive: 0.041,inactive: 0.026,inactive: -0.038,inactive: -0.018,inactive: -0.017,inactive: -0.031,inactive: 0.023,inactive: -0.037,inactive: 0.04
SSU72 (UniProt Q9NP77),inactive: -0.067,inactive: 0.057,inactive: -0.071,inactive: -0.064,inactive: -0.003,inactive: 0.07,inactive: 0.005,inactive: 0.029,inactive: 0,inactive: 0.001
SPEN (UniProt Q96T58),inactive: -0.031,inactive: -0.655,inactive: 0.031,inactive: 0.004,inactive: 0.101,inactive: 0.006,inactive: 0.037,inactive: 0.001,inactive: -0.035,inactive: -0.084
SRSF7 (UniProt Q16629),inactive: 0.019,inactive: -0.068,inactive: -0.043,inactive: 0.002,inactive: -0.066,inactive: -0.02,inactive: -0.016,inactive: 0.032,inactive: 0.008,inactive: -0.03
STAT3 isoform 2 (UniProt P40763),inactive: 0.002,inactive: 0.002,inactive: -0.003,inactive: -0.005,inactive: 0.009,inactive: -0.013,inactive: -0.012,inactive: -0.012,inactive: 0.034,inactive: -0.016
STIL isoform 2 (UniProt Q15468),inactive: 0.042,inactive: 0.09,inactive: 0.021,inactive: -0.048,inactive: -0.015,inactive: 0.037,inactive: 0.052,inactive: -0.114,inactive: -0.036,inactive: -0.031
STAM (UniProt Q92783),inactive: -0.026,inactive: 0.026,inactive: 0.011,inactive: 0,inactive: -0.004,inactive: 0.042,inactive: 0.05,inactive: 0.024,inactive: 0.007,inactive: 0.03
SPTA1 (UniProt P02549),inactive: -0.005,inactive: 0.033,inactive: -0.043,inactive: -0.015,inactive: 0.024,inactive: 0.016,inactive: 0.004,inactive: 0.006,inactive: 0.016,inactive: -0.01
STAT3 isoform 3 (UniProt P40763),inactive: 0.042,inactive: -0.312,inactive: -0.191,inactive: -0.008,inactive: -0.012,inactive: -0.036,inactive: 0.144,inactive: 0.022,inactive: -0.152,inactive: -0.092
SRSF6 (UniProt Q13247),inactive: 0.018,inactive: -0.216,inactive: -0.004,inactive: 0,inactive: -0.013,inactive: 0.008,inactive: 0.017,inactive: 0.126,inactive: -0.036,inactive: -0.017
SSBP3 (UniProt Q9BWW4),inactive: 0.038,inactive: -0.09,inactive: 0.004,inactive: 0.026,inactive: 0.129,inactive: -0.048,inactive: 0.018,inactive: -0.054,inactive: 0.013,inactive: 0.041
SRSF4 (UniProt Q08170),inactive: -0.019,inactive: -0.027,inactive: -0.03,inactive: 0.002,inactive: 0.006,inactive: -0.023,inactive: 0.071,inactive: 0.035,inactive: -0.063,inactive: -0.028
SRSF11 (UniProt Q05519),inactive: -0.008,inactive: 0.008,inactive: -0.07,inactive: -0.002,inactive: -0.02,inactive: -0.006,inactive: 0.035,inactive: 0.003,inactive: -0.017,inactive: -0.004
STARD3NL (UniProt O95772),inactive: -0.01,inactive: 0.055,inactive: 0.035,inactive: 0.1,inactive: -0.016,inactive: 0.01,inactive: 0.002,inactive: 0.015,inactive: 0.061,inactive: 0.043
SRP14 (UniProt P37108),inactive: -0.006,inactive: -0.008,inactive: -0.005,inactive: -0.034,inactive: -0.006,inactive: 0.019,inactive: 0.018,inactive: 0.011,inactive: 0.001,inactive: 0.001
SRP68 (UniProt Q9UHB9),inactive: 0.018,inactive: 0.021,inactive: 0.052,inactive: 0.035,inactive: 0,inactive: -0.019,inactive: -0.025,inactive: -0.04,inactive: -0.013,inactive: -0.006
SSBP1 (UniProt Q04837),inactive: 0.02,inactive: -0.05,inactive: 0.031,inactive: 0.022,inactive: 0.007,inactive: -0.004,inactive: 0.025,inactive: 0.031,inactive: 0.018,inactive: -0.006
SPC24 (UniProt Q8NBT2),inactive: 0.002,inactive: 0.004,inactive: -0.015,inactive: 0.008,inactive: 0.002,inactive: -0.003,inactive: 0.002,inactive: 0.018,inactive: -0.001,inactive: -0.003
SPATS2L isoform 2 (UniProt Q9NUQ6),inactive: 0.034,inactive: -0.312,inactive: -0.061,inactive: 0.1,inactive: 0.001,inactive: -0.012,inactive: -0.007,inactive: 0.039,inactive: 0.017,inactive: 0.119
SRGAP2 (UniProt O75044),inactive: 0.006,inactive: 0.005,inactive: 0.021,inactive: 0.002,inactive: 0.012,inactive: 0.013,inactive: 0.026,inactive: -0.007,inactive: -0.012,inactive: -0.011
SRSF5 (UniProt Q13243),inactive: -0.033,inactive: -0.224,inactive: -0.001,inactive: -0.043,inactive: -0.035,inactive: 0.023,inactive: -0.019,inactive: 0.023,inactive: -0.005,inactive: 0.03
SPCS3 (UniProt P61009),inactive: -0.031,inactive: -0.041,inactive: -0.004,inactive: 0.039,inactive: 0.007,inactive: 0.001,inactive: 0,inactive: -0.021,inactive: 0.029,inactive: -0.06
SPTB isoform 2 (UniProt P11277),inactive: 0.023,inactive: 0.069,inactive: -0.053,inactive: 0.02,inactive: 0.008,inactive: 0.014,inactive: -0.034,inactive: -0.018,inactive: 0.023,inactive: 0.01
SSR1 (UniProt P43307),inactive: -0.038,inactive: -0.046,inactive: -0.023,inactive: 0.038,inactive: -0.007,inactive: -0.019,inactive: 0.021,inactive: 0.006,inactive: 0.017,inactive: -0.014
SPPL2A (UniProt Q8TCT8),inactive: 0.005,inactive: -0.007,inactive: 0.118,inactive: -0.104,inactive: -0.011,inactive: -0.07,inactive: -0.141,inactive: -0.082,active: -0.644,inactive: 0.014
ST3GAL4 isoform 4 (UniProt Q11206),inactive: 0.253,inactive: -0.045,inactive: -0.234,inactive: 0.007,inactive: 0.077,inactive: -0.029,inactive: -0.076,inactive: -0.215,inactive: -0.041,inactive: 0.041
SPECC1 (UniProt Q5M775),inactive: -0.05,inactive: -0.013,inactive: 0.051,inactive: -0.024,inactive: -0.089,inactive: -0.013,inactive: -0.005,inactive: -0.152,inactive: 0.01,inactive: -0.022
